Consider three molecules from paper doi:10.1101/2025.10.06.680572.

Protein sequences, listed by entry. Tags and fused reporters are not part of them. Lines headed by an entry give the natural chain unless they say otherwise; changes in a name come on top.
UniProt P35221, whole entry: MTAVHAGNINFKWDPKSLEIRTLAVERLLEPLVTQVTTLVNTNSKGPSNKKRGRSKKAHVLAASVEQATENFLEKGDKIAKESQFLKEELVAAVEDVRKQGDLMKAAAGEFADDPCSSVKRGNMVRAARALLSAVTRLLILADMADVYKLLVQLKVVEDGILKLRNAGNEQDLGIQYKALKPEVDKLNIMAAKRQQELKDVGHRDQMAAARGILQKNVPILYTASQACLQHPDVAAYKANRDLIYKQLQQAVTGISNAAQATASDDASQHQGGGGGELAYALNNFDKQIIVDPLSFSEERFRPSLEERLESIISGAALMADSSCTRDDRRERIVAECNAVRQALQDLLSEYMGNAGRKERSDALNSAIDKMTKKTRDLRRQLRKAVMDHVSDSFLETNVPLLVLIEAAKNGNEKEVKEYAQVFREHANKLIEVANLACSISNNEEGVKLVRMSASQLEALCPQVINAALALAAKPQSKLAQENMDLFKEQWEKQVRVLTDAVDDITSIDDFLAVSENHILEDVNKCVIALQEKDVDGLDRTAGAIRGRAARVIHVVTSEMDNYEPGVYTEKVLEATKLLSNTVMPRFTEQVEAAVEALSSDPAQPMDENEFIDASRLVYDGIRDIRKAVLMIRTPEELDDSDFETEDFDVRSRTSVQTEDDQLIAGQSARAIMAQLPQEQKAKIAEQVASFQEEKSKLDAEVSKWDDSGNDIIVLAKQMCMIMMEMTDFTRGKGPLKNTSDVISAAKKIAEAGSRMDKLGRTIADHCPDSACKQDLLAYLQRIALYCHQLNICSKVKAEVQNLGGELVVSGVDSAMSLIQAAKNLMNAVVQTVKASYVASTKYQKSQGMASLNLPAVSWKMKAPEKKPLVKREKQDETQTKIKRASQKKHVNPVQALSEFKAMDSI

Results are given in words; binding and its absence hold for the method and conditions named. In cells and extracts the contact can be indirect. Some binding calls cover weakened binding; strength is not graded here.

The target of test [1] is T1, K-Cadherin (mouse) (mouse (endogenous in adrenal tissue)) (UniProt P97326).
T1 sequence: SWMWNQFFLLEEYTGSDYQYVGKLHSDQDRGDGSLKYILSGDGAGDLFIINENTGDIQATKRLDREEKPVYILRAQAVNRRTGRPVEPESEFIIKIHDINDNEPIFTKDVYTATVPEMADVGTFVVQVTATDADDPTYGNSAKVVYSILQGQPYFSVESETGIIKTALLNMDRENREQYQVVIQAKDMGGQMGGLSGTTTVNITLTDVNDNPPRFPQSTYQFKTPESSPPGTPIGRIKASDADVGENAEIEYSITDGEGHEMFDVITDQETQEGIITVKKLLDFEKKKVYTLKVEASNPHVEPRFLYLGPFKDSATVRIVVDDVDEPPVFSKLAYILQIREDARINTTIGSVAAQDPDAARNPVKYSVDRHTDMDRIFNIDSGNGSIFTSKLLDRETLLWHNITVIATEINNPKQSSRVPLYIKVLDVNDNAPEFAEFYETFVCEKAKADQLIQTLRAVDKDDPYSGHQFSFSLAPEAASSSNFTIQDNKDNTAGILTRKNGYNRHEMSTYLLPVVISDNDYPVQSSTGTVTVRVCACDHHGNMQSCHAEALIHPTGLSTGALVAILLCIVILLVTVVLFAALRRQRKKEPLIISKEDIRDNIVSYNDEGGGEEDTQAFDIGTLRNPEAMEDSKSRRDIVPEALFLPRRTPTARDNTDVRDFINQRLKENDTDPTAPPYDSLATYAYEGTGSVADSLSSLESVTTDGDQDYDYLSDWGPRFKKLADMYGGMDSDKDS
Kind of test: proximity ligation.

The target of test [2] is α-Catenin (human (endogenous in NCI-H295R)) (UniProt P35221). Kind of test: co-IP.
For test [3], the target named is T2, K-Cadherin (human (endogenous in NCI-H295R and in human APA tissue)) (UniProt P55285).
T2 sequence: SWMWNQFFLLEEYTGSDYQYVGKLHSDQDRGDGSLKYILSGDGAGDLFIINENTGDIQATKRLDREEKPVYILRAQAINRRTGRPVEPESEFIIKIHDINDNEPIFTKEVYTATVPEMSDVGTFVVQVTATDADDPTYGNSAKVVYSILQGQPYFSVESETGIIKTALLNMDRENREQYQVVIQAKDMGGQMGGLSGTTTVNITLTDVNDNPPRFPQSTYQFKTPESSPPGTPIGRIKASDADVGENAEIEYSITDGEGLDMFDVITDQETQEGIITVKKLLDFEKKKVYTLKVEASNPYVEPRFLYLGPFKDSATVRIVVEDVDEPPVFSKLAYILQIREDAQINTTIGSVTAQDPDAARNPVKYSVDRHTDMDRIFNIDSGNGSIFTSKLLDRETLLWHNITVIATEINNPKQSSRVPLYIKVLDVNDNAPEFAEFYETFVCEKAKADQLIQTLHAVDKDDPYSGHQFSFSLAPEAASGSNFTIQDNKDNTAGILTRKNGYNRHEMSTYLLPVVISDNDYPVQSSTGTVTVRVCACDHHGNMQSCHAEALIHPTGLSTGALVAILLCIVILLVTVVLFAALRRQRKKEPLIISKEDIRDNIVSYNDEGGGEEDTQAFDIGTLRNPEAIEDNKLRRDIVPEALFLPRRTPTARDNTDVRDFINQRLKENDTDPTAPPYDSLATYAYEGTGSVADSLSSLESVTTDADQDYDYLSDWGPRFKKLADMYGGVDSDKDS
Kind of test: proximity ligation.

B1: p120-catenin (mouse) (protein, UniProt P30999 1-938)
chain: MDDSEVESTASILASVKEQEAQFEKLTRALEEERRHVSAQLERVRVSPQDANSLMANGTLTRRHQNGRFVGDADLERQKFSDLKLNGPQDHNHLLYSTIPRMQEPGQIVETYTEEDPEGAMSVVSVETTDDGTTRRTETTVKKVVKTMTTRTVQPVPMGPDGLPVDASAVSNNYIQTLGRDFRKNGNGGPGPYVGQAGTATLPRNFHYPPDGYGRHYEDGYPGGSDNYGSLSRVTRIEERYRPSMEGYRAPSRQDVYGPQPQVRVGGSSVDLHRFHPEPYGLEDDQRSMGYDDLDYGMMSDYGTARRTGTPSDPRRRLRSYEDMIGEEVPPDQYYWAPLAQHERGSLASLDSLRKGMPPPSNWRQPELPEVIAMLGFRLDAVKSNAAAYLQHLCYRNDKVKTDVRKLKGIPILVGLLDHPKKEVHLGACGALKNISFGRDQDNKIAIKNCDGVPALVRLLRKARDMDLTEVITGTLWNLSSHDSIKMEIVDHALHALTDEVIIPHSGWEREPNEDCKPRHIEWESVLTNTAGCLRNVSSERSEARRKLRECDGLVDALIFIVQAEIGQKDSDSKLVENCVCLLRNLSYQVHREIPQAERYQEALPTVANSTGPHAASCFGAKKGKDEWFSRGKKPTEDPANDTVDFPKRTSPARGYELLFQPEVVRIYISLLKESKTPAILEASAGAIQNLCAGRWTYGRYIRSALRQEKALSAIAELLTSEHERVVKAASGALRNLAVDARNKELIGKHAIPNLVKNLPGGQQNSSWNFSEDTVVSILNTINEVIAENLEAAKKLRETQGIEKLVLINKSGNRSEKEVRAAALVLQTIWGYKELRKPLEKEGWKKSDFQVNLNNASRSQSSHSYDDSTLPLIDRNQKSDKKPDREEIPMSNMGSNTKSLDNNYSTLNERGDHNRTLDRSGDLGDMEPLKGAPLMQKI
As to B1, the binding entry in test [1] is “binds”.

B2: K-Cadherin (protein, UniProt P55285 54-790)
chain: T2 sequence
For B2, the binding entry in test [2] was “binds”.

B3: p120-catenin (human) (protein, UniProt O60716 1-968)
chain: MDDSEVESTASILASVKEQEAQFEKLTRALEEERRHVSAQLERVRVSPQDANPLMANGTLTRRHQNGRFVGDADLERQKFSDLKLNGPQDHSHLLYSTIPRMQEPGQIVETYTEEDPEGAMSVVSVETSDDGTTRRTETTVKKVVKTVTTRTVQPVAMGPDGLPVDASSVSNNYIQTLGRDFRKNGNGGPGPYVGQAGTATLPRNFHYPPDGYSRHYEDGYPGGSDNYGSLSRVTRIEERYRPSMEGYRAPSRQDVYGPQPQVRVGGSSVDLHRFHPEPYGLEDDQRSMGYDDLDYGMMSDYGTARRTGTPSDPRRRLRSYEDMIGEEVPSDQYYWAPLAQHERGSLASLDSLRKGGPPPPNWRQPELPEVIAMLGFRLDAVKSNAAAYLQHLCYRNDKVKTDVRKLKGIPVLVGLLDHPKKEVHLGACGALKNISFGRDQDNKIAIKNCDGVPALVRLLRKARDMDLTEVITGTLWNLSSHDSIKMEIVDHALHALTDEVIIPHSGWEREPNEDCKPRHIEWESVLTNTAGCLRNVSSERSEARRKLRECDGLVDALIFIVQAEIGQKDSDSKLVENCVCLLRNLSYQVHREIPQAERYQEAAPNVANNTGPHAASCFGAKKGKDEWFSRGKKPIEDPANDTVDFPKRTSPARGYELLFQPEVVRIYISLLKESKTPAILEASAGAIQNLCAGRWTYGRYIRSALRQEKALSAIADLLTNEHERVVKAASGALRNLAVDARNKELIGKHAIPNLVKNLPGGQQNSSWNFSEDTVISILNTINEVIAENLEAAKKLRETQGIEKLVLINKSGNRSEKEVRAAALVLQTIWGYKELRKPLEKEGWKKSDFQVNLNNASRSQSSHSYDDSTLPLIDRNQKSDKKPDREEIQMSNMGSNTKSLDNNYSTPNERGDHNRTLDRSGDLGDMEPLKGTTPLMQDEGQESLEEELDVLVLDDEGGQVSYPSMQKI
B3: the binding result in test [3] is recorded as “binds”.
